# Hit rate of the full screen: of about 300,000 compounds, about 3,700 (1.2%) were called active. This list was built around the results that the source calls inconclusive (neither active nor inactive); the mix of calls is not that of the screen. Calls follow the shape of the full dose curve; tested in HEK293 cells. Potencies of inconclusive entries are doubtful fits and often do not repeat.
# Experiment: qHTS for Inhibitors of binding or entry into cells for Lassa Virus; also: nearly all actives have a fitted effect of over 50% in size
# Conditions: Lassa virus pseudotype entry inhibition, cell reporter; activity change, negative = inhibition: at 37.9 µM (top of the series) unless noted
# % is scaled to controls: 0 for no effect and ±100 for the full control effect; potency is read from the fitted curve at half-maximal effect.
SMILES,Potency,"activity change, negative = inhibition"
Cc1ccc2nc(-c3cccc(NS(C)(=O)=O)c3)cc(-c3ccccc3)c2c1,"inconclusive: 12.6 µM [inhibitor, partial curve, poor fit]",–
Cc1ccc2oc(C(=O)NCc3ccc4c(c3)OCO4)c(C)c2c1,"inconclusive: 22.4 µM [inhibitor, single point]",–
CC(C)N1C(=O)c2ccccc2C1C(=O)NCCc1ccccc1 (stereo not given),"inconclusive: 0.562 µM [activator, full curve, poor fit]",–
O=C(Nc1cccc(C(F)(F)F)c1)Nc1ccc2[nH]c(=O)[nH]c2c1,–,inactive: 4.74% [at 46.1 µM]
Cc1cc(C)cc(NC(=O)Cn2cc(C(=O)c3cccs3)c3ccccc32)c1,"inconclusive: 35.5 µM [inhibitor, single point]",–
CC(NCc1ccc(F)cc1)C(=O)Nc1cc(S(=O)(=O)N2CCCCC2)ccc1Cl (stereo not given),"inconclusive: 31.6 µM [inhibitor, single point]",–
COc1ccc(Nc2c(-c3ccc(C)o3)nc3cc(C)ccn23)cc1,–,inactive: 1.27% [at 46.1 µM]
Cc1nc[nH]c(=O)c1Br,"inconclusive: 1.26 µM [inhibitor, single point]",–
COc1cccc(NC(=O)CN2CCN(S(=O)(=O)c3ccc(C(C)C)cc3)CC2)c1,"inconclusive: 11.2 µM [inhibitor, partial curve, poor fit]",–
Cc1cccc(-n2cc(-c3ccccc3)c3c(=O)[nH]cnc32)c1,"inconclusive: 25.9 µM [inhibitor, partial curve]",–
CCC(CC)c1nnc(NC(=O)CS(=O)(=O)c2ccccc2)s1,–,inactive: 1.53% [at 46.1 µM]
Cc1cc(NC(=O)c2ccc3nc(-c4ccccc4)c(-c4ccccc4)nc3c2)no1,–,inactive: -40.4% [at 14.3 µM]
C1CCCC(N2CCNCC2)CC1,"inconclusive: 6.51 µM [inhibitor, single point]",–
O=C(Cc1ccccc1[N+](=O)[O-])Nc1ccc2c(c1)OCCO2,"inconclusive: 15.8 µM [activator, single point]",–
NC(=O)c1c(NC(=O)c2cc3ccccc3o2)sc2c1CCC2,"inconclusive: 0.112 µM [activator, full curve, poor fit]",–
COc1cc(C(=S)N2CCOCC2)cc(OC)c1OS(=O)(=O)c1ccc(NC(C)=O)cc1,–,inactive: -0.646%
COc1ccc(NC(=O)COC(=O)c2cc(OC)c(OC)cc2NC(=O)c2ccco2)cc1OC,–,inactive: -15.4%
COc1cccc(/C=C2/CCC(CN(C)C)C2=O)c1 (stereo not given),active: 12.6 µM,–
CCc1ccc(NC(=O)CC2C(=O)Nc3c2c(=O)n(C)c(=O)n3C)cc1 (stereo not given),"inconclusive: 25.9 µM [activator, single point]",–
Cc1ccc(S(=O)(=O)N(CC(=O)NCCSc2ccc(Cl)cc2)c2ccccc2C)cc1,"inconclusive: 15.8 µM [inhibitor, single point]",–

# One compound at a time, as listed above.
# Cc1nc[nH]c(=O)c1Br is listed with Potency: inconclusive: 1.26 µM [inhibitor, single point]
# Cc1cc(NC(=O)c2ccc3nc(-c4ccccc4)c(-c4ccccc4)nc3c2)no1 is listed with activity change, negative = inhibition: inactive: -40.4% [at 14.3 µM]

# Reference: PubChem BioAssay AID540256 (National Center for Advancing Translational Sciences (NCATS), 2011)
